These are yes or no findings as the source states them, for the method shown. In cells and extracts the contact can be indirect. Some results given as binding are weak or reduced against the parent protein; the word gives no strength. For part of these data: Sequences can lack the tags named with a protein.

Chains of the proteins cited; added tags and fusions are not shown.
UniProt P06788: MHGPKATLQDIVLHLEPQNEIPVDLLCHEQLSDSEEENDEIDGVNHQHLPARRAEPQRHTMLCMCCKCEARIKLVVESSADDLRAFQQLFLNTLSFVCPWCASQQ
UniProt P03129: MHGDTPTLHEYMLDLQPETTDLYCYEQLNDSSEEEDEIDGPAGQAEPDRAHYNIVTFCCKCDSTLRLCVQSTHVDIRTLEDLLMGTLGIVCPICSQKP

One assay has as its target T1, Flag-KAT8 (UniProt Q9H7Z6).
T1 sequence: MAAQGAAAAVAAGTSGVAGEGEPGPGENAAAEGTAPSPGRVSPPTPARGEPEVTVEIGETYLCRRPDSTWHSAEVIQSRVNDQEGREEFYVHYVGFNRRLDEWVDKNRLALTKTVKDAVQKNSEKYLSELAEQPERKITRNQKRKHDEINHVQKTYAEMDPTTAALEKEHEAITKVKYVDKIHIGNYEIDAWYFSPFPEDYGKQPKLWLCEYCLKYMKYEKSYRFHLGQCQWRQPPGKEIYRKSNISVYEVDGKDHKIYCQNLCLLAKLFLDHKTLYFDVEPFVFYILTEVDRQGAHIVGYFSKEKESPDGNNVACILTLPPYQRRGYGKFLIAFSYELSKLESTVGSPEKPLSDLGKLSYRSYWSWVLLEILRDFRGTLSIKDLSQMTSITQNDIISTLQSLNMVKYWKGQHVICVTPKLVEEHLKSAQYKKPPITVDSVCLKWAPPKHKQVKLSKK
Kind of assay: co-IP.

The target in assay [1] is T2, retinoblastoma protein (pRb) (human (endogenous in HeLa)) (UniProt P06400).
T2 sequence: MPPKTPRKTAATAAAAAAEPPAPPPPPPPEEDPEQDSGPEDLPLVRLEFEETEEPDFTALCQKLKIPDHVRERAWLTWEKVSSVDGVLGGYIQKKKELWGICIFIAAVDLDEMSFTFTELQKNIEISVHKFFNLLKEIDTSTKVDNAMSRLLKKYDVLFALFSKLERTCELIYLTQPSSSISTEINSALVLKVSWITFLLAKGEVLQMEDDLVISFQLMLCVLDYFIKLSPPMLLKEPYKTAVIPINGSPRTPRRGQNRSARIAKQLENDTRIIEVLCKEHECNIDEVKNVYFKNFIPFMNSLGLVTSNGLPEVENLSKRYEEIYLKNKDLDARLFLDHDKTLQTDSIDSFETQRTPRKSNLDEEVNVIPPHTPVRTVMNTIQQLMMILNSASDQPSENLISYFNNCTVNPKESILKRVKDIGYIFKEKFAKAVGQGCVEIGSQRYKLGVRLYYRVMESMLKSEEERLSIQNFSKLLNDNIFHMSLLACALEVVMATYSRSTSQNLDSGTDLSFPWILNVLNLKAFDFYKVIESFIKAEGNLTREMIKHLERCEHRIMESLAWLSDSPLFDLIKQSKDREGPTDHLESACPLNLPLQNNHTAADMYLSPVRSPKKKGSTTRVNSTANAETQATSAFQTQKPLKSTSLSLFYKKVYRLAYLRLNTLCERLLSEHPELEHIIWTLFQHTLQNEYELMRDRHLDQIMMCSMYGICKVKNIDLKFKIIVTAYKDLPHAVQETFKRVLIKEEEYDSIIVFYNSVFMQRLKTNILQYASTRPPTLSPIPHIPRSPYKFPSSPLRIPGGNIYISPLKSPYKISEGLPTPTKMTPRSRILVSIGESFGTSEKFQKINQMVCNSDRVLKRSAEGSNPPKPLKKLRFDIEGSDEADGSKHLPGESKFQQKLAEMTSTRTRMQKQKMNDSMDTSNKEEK
Nature of the assay: co-IP.

As for HA-HPV18-E7 (from UniProt P06788 1-105), the binding entry with Flag-KAT8 is reported as “binds”. In the case of “HPV18 E7 (endogenous in HeLa cells) (from UniProt P06788 1-105)”, in assay [1], the binding result was “binds”. As to HA-HPV16-E7 (from UniProt P03129 1-98), in the assay with Flag-KAT8, the binding entry was “binds”.

Values taken from doi:10.1101/2024.12.26.629157.
